Patent US20140248361A1, “HERBAL EXTRACT COMPOSITION AND A PROCESS THEREOF” (PRASAN SOLUTIONS (INDIA) PVT LTD, priority 2012, published 2014)

Test: Totox value of sunflower oil on storage
[1] = ambient temperature, day 0, 200 ppm
[2] = ambient temperature, day 15, 200 ppm
[3] = ambient temperature, day 30, 200 ppm
[4] = ambient temperature, day 45, 200 ppm
[5] = ambient temperature, day 60, 200 ppm
[6] = ambient temperature, day 75, 200 ppm
[7] = ambient temperature, day 90, 200 ppm
[8] = ambient temperature, day 105, 200 ppm
[9] = ambient temperature, day 120, 200 ppm
[10] = ambient temperature, day 135, 200 ppm
[11] = ambient temperature, day 150, 200 ppm
[12] = ambient temperature, day 165, 200 ppm
[13] = ambient temperature, day 180, 200 ppm

SMILES	Totox value of sunflower oil (50° C., day 0, 200 ppm)	Totox value of sunflower oil (50° C., day 7, 200 ppm)	Totox value of sunflower oil (50° C., day 15, 200 ppm)	Totox value of sunflower oil (50° C., day 22, 200 ppm)	Totox value of sunflower oil (50° C., day 30, 200 ppm)	Totox value of sunflower oil (50° C., day 37, 200 ppm)	Totox value of sunflower oil (50° C., day 45, 200 ppm)	Totox value of sunflower oil [1]	Totox value of sunflower oil [2]	Totox value of sunflower oil [3]	Totox value of sunflower oil [4]	Totox value of sunflower oil [5]	Totox value of sunflower oil [6]	Totox value of sunflower oil [7]	Totox value of sunflower oil [8]	Totox value of sunflower oil [9]	Totox value of sunflower oil [10]	Totox value of sunflower oil [11]	Totox value of sunflower oil [12]	Totox value of sunflower oil [13]
COc1ccc(O)c(C(C)(C)C)c1 [Sample B, butylated hydroxyanisole]	7.850	18.784	30.034	37.639	44.365	54.210	68.642	7.458	13.438	23.889	28.077	34.976	42.114	52.191	65.149	75.207	92.085	101.75	122.23	133.27
CC(C)(C)c1cc(O)ccc1O [Sample A, tertiary butyl hydroquinone]	7.850	8.919	11.655	17.128	27.087	32.447	36.287	7.458	10.051	11.937	12.588	12.893	13.749	14.669	16.253	17.299	19.100	20.674	24.158	25.399
